Source: PubChem BioAssay AID1688 (National Center for Advancing Translational Sciences (NCATS), 2009)
Hit rate of the full screen: of about 220,000 compounds, about 2,400 (1.1%) were called active. Inconclusive means that the source gave no clear call. Such entries were picked first, then a sample of the others. Calls come from the whole dose curve; as a rule, active = well fitted inhibition curve with a large enough effect; inconclusive = small, poorly fitted or top-dose-only effect, or effect the other way; inactive = no such curve, though single readings can be large or run the other way. Potencies of inconclusive entries are doubtful fits and often do not repeat.

Assay: qHTS Multiplex Assay to Identify Dual Action Probes in a Cell Model of Huntington: Aggregate Formation (GFP); note: nearly all actives have a fitted effect of over 60% in size
Settings: PC12 HttQ103-GFP aggregates, Acumen cytometry, 40 h; activity change, negative = inhibition: at 46.1 µM (top of the series) unless noted
In short: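 Multiplexed with ATP-based cell death, this channel scores GFP aggregates in PC12 cells expressing inducible HTTex1-Q103-GFP. Induction used 100 nM tebufenozide; compounds were tested in concentration series.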
% is set by controls: 0 for no effect and ±100 for the full control effect; potency is the fitted concentration of half-maximal effect.

Compound	Potency	activity change, negative = inhibition
Cc1ccc(NC(=O)/C=C/c2cccc(C(F)(F)F)c2)cc1	inconclusive: 5.62 µM [inhibitor, single point]	–
COc1ccc(S(=O)(=O)n2ccc(C(C)Oc3ccc(-c4ccccc4)c(F)c3)n2)cc1 (configuration not stated)	inconclusive: 28.2 µM [inhibitor, single point]	–
CCCCN1C(=O)/C(=C2\SC(N3CCCCC3)=NC2=O)c2ccccc21	inconclusive: 35.5 µM [inhibitor, single point]	–
COc1ccnc(CSC(N)=Nc2ccccc2OC)c1	inconclusive: 35.5 µM [inhibitor, single point]	–
CN(C(=O)c1cccs1)c1ccccc1C(=O)O	inconclusive: 0.112 µM [inhibitor, full curve]	–
CCCNC(=O)c1ccccc1NC(=O)c1ccc(CSc2ccccc2)cc1	inconclusive: 2 µM [inhibitor, full curve, poor fit]	–
Cc1ccc(S(=O)(=O)/N=C(/c2ccc(F)cc2)N2CCCCC2)cc1	inactive	–
COc1ccccc1-c1nc(C#N)c(N2CCCCCC2)o1	inconclusive: 11.2 µM [inhibitor, single point]	–
CC(C)C(=O)NC(NC(=S)Nc1ccc(S(N)(=O)=O)cc1)C(Cl)(Cl)Cl (configuration not stated)	inactive	–
Cc1onc(-c2ccccc2)c1C(=O)NCCc1ccc(S(N)(=O)=O)cc1	inconclusive: 1.78 µM [inhibitor, partial curve]	–
Cn1ncc(Cl)c1C(=O)NC1C2CC3CC(C2)CC1C3 (configuration not stated)	inconclusive: 2 µM [activator, partial curve]	–
CC1=NNC(=O)/C1=C\c1cn(-c2ccccc2)nc1-c1cccs1	inconclusive: 15.8 µM [inhibitor, single point]	–
O=C(O)CCC(=O)CCC(=O)c1ccccc1	inactive	–
O=C(c1ccc2nc(N3CCOCC3)sc2c1)N1CCCC1	inconclusive: 1.26 µM [inhibitor, single point]	–
COc1cccc(OC)c1C(=O)NC(=S)Nc1ccc2c(c1)OCCO2	inactive	–
O=C1C(Cl)=C(NC2CCCCC2)C(=O)N1Cc1ccccc1	inconclusive: 20 µM [inhibitor, single point]	–
Cc1ccc(NC(=O)Cn2nc(C)c(S(=O)(=O)N(C)C)c2C)cc1	inactive	–
O=C(O)c1ccccc1C(=O)Nc1cccc([N+](=O)[O-])c1	–	inactive: -17.3% [at 9.22 µM]
CCOc1ccccc1NC(=O)CSc1nnc(-c2ccccn2)n1Cc1ccco1	inconclusive: 35.5 µM [inhibitor, single point]	–
CCOc1ccc2nc(SC3CC(=O)N(c4cccc(OC)c4)C3=O)sc2c1 (configuration not stated)	inconclusive: 35.5 µM [inhibitor, single point]	–
COc1ccc(-c2csc(NC(=O)CSc3n[nH]c(N)n3)n2)cc1	inactive	–
O=C(N/N=C/c1ccc(Cl)cc1)C1CC12CCC2 (configuration not stated)	inconclusive: 20 µM [inhibitor, partial curve]	–
CCNc1oc(-c2cccc3ccccc23)nc1C#N	inactive	–
NC(=S)c1cc2cc(Cl)ccc2oc1=O	–	inactive: -0.905% [at 9.22 µM]

Of the compounds above, two contain a thiophene ring, fused or not:
Compound	Potency	activity change, negative = inhibition
CN(C(=O)c1cccs1)c1ccccc1C(=O)O	inconclusive: 0.112 µM [inhibitor, full curve]	–
CC1=NNC(=O)/C1=C\c1cn(-c2ccccc2)nc1-c1cccs1	inconclusive: 15.8 µM [inhibitor, single point]	–

The list goes on.

Compound	Potency	activity change, negative = inhibition
O=[N+]([O-])c1ccc(CN2CCCCCC2)s1	inconclusive: 35.5 µM [activator, single point]	–
Cc1oc2c(c1C(=O)NCc1cccnc1)C(=O)c1ccccc1C2=O	active: 3.55 µM	–
COc1ccc(C[C@H]2CN3C(=NC[C@@H]3Cc3ccc(O)cc3)N2C[C@H](C)NC(=O)c2ccc(C)c(Br)c2)cc1	inconclusive: 3.55 µM [inhibitor, single point]	–
Cc1ccc(C(=O)NCCSc2ccc(Cl)cc2)cc1S(=O)(=O)Nc1ccccc1	inconclusive: 35.5 µM [inhibitor, single point]	–
Cc1cc(C)c2nc(NNC(=O)c3ccc(S(=O)(=O)N4CCCC(C)C4)cc3)sc2c1 (configuration not stated)	inconclusive: 10 µM [inhibitor, partial curve]	–
CCOc1ccccc1OCCOCCN1CC(C)OC(C)C1 (configuration not stated)	inactive	–
CN(Cc1ccccc1)C(=O)CN1C(=O)C2C3C=CC(C3)C2C1=O (configuration not stated)	inactive	–
COc1ccc(S(=O)(=O)NCCSCc2ccco2)cc1	inconclusive: 12.6 µM [activator, partial curve]	–
CC(=O)c1ccc(OC(C)C)c(CSc2nc(O)cc(=O)[nH]2)c1	inconclusive: 35.5 µM [activator, partial curve]	–
CC(=O)OC(/C(O)=C(\C#N)c1nc2ccccc2[nH]1)c1ccccc1 (configuration not stated)	inconclusive: 35.5 µM [activator, single point]	–
Cc1ccc(NC(=S)N(CCCN2CCOCC2)Cc2ccccn2)cc1Cl	inconclusive: 25.1 µM [inhibitor, single point]	–
CCN1C(=O)/C(=C/c2cnn(C)c2C)SC1=S	inactive	–
N=c1c2c(n(Cc3ccc(F)cc3)c3c1CCC3)CCC2	inconclusive: 7.08 µM [inhibitor, full curve]	–
Cc1ccc(-c2csc3nc(CN(C)Cc4ccccc4)[nH]c(=O)c23)cc1	inconclusive: 14.1 µM [inhibitor, single point]	–
O=C(O)CSCc1ccc(Cl)cc1	inactive	–
N#C/C(=C\c1ccc([N+](=O)[O-])o1)C(=O)Nc1ccc(F)cc1	inconclusive: 35.5 µM [inhibitor, single point]	–
Cc1ccc(-c2nc(CS(=O)CC(=O)NCCN(CC(C)C)CC(C)C)c(C)o2)cc1 (configuration not stated)	inconclusive: 3.98 µM [inhibitor, partial curve, poor fit]	–
COc1ccc(Cn2nnnc2C(c2ccccc2)N2CCN(C3CCCC3)CC2)cc1 (configuration not stated)	inconclusive: 35.5 µM [inhibitor, single point]	–
CC(C)(C)c1ccc(-n2nc(C#N)c(Cl)cc2=O)cc1	active: 5.01 µM	–
Cc1ccccc1N=Nc1ccc(O)c2ncccc12	active: 2.51 µM	–
Cc1cccc(C(=O)NC(NC(=S)Nc2ccc(S(N)(=O)=O)cc2)C(Cl)(Cl)Cl)c1 (configuration not stated)	inactive	–
CS(=O)(=O)N1CC(C(=O)NN)Oc2ccc(Cl)cc21 (configuration not stated)	inactive	–
COc1ccc(C(=O)C[n+]2ccc3c(c2)nc(-c2cc(OC)c(OC)cc2OC)n3C)cc1	inconclusive: 35.5 µM [inhibitor, partial curve, poor fit]	–
